Measurements reported in PubChem BioAssay AID686943 (Drosophila RNAi Screening Center, 2013)

Screen: 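Fly genes whose loss alters ERK activation after insulin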 (primary screen)
Cells: Drosophila S2R+ haemocyte-like cells expressing YFP-tagged ERK (Rolled)
Knock-down reagent: long dsRNA against Drosophila genes
Conditions: insulin stimulation versus unstimulated cells; dose and duration not given
Detection: 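Antibody staining for doubly phosphorylated ERK divided by ERK-YFP signal, as plate z-scores, in insulin-treated and untreated cells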
Direction: replicate 1, z-score of dpERK with insulin and replicate 2, z-score of dpERK with insulin: higher = more active ERK per ERK-YFP after insulin; replicate 1, z-score of dpERK under basal conditions: higher = more basal active ERK per ERK-YFP; replicate 1, z-score of ERK-YFP with insulin: higher = more YFP-tagged ERK signal
The deposit covers about 23,000 reagents; below is a random part of those with a known target gene and a result. 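Extra replicates exist only for a retested subset of genes; insulin dose and duration not given; both raised and lowered dpERK matter.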 Names joined by + are all predicted targets of the reagent. Not given: the amount of reagent, the time to read-out.

no.	target	DRSC id	replicate 1, z-score of dpERK with insulin	replicate 2, z-score of dpERK with insulin	replicate 1, z-score of dpERK under basal conditions	replicate 1, z-score of ERK-YFP with insulin
1	Polr2H (GeneID 40415)	DRSC11642	2.54	1.88	-1.86	-2.4
2	CG13226 (GeneID 36184)	DRSC06346	-0.01	-0.47	0.48	0.16
3	lncRNA:CR31044 (GeneID 10178917)	DRSC22451	-0.22	0.43	-0.03	-0.54
4	Pex11c (GeneID 42751)	DRSC14677	0.48	-0.05	0.36	-0.59
5	CG31551 (GeneID 318795)	DRSC12159	0.44	-0.28	-0.1	0.67
6	CG31551 (GeneID 318795)	DRSC22403	-0.13	-3.65	1.65	-0.61
7	PPO1 (GeneID 37044)	DRSC05929	0.15	0.28	2.07	0.39
8	SMC2 (GeneID 36653)	DRSC07544	-0.04	-0.13	-0.05	1.07
9	Mst87F (GeneID 41693)	DRSC16747	0.35	-0.94	-0.66	-0.02
10	sra (GeneID 47384)	DRSC17015	-0.42	-0.03	0.5	0.94
11	CG14071 (GeneID 34507)	DRSC02374	-0.14	0.12	-0.08	0.01
12	CG9444 (GeneID 41175)	DRSC16493	0.13	0.19	0.06	0.41
13	HHEX (GeneID 42495)	DRSC16186	-0.77	0.67	0.24	-3.9
14	CG43078 (GeneID 38981)	DRSC10292	0.9	0.55	0.35	1.34
15	CG43078 (GeneID 38981)	DRSC10608	0.21	0.74	-0.42	0.8
16	CG43078 (GeneID 38981)	DRSC21541	-0.11	0.28	-0.81	0.47
17	CG43078 (GeneID 38981)	DRSC22327	0.89	0.49	0.94	0.25
18	CG9117 (GeneID 33846)	DRSC03141	0.74	0.29	0.6	-0.93
19	CG43074 (GeneID 12798579)	DRSC08044	-0.67	-0.94	0.69	0.42
20	CG13870 (GeneID 37308)	DRSC06429	-0.7	-1.12	0.12	0.63
21	CG18622 (GeneID 42044)	DRSC15360	-0.09	0.39	-0.31	1.48
22	Mtpbeta (GeneID 37784)	DRSC04663	0.84	0.43	0.68	-0.6
23	vvl (GeneID 38752)	DRSC11409	0.61	0.13	-0.11	0
24	CG30416 (GeneID 246603)	DRSC04565	0.18	0.67	1.17	-0.57

Look-ups from the entries so far.
Value for Mst87F (GeneID 41693) [DRSC16747] in “replicate 1, z-score of dpERK under basal conditions”: -0.66
For “replicate 1, z-score of dpERK under basal conditions”, CG30416 (GeneID 246603) [DRSC04565] reads 1.17
SMC2 (GeneID 36653) [DRSC07544], replicate 1, z-score of dpERK with insulin = -0.04
CG43078 (GeneID 38981) [DRSC10608], replicate 1, z-score of dpERK under basal conditions: -0.42
CG43078 (GeneID 38981) [DRSC21541], replicate 2, z-score of dpERK with insulin: 0.28
CG13226 (GeneID 36184) [DRSC06346], replicate 1, z-score of dpERK under basal conditions → 0.48

More records:
no.	target	DRSC id	replicate 1, z-score of dpERK with insulin	replicate 2, z-score of dpERK with insulin	replicate 1, z-score of dpERK under basal conditions	replicate 1, z-score of ERK-YFP with insulin
25	Rnp4F (GeneID 31448)	DRSC18706	-0.56	-0.28	0.26	0.62
26	CG31821 (GeneID 34938)	DRSC22162	-0.86	0.06	0.45	-0.32
27	Rbcn-3B (GeneID 31155)	DRSC18574	-0.29	0.37	0.04	0.73
28	spri (GeneID 31987)	DRSC17846	-4.88	-4.36	-1.18	-0.72
29	spri (GeneID 31987)	DRSC17984	0.03	-0.66	0.18	0.32
30	spri (GeneID 31987)	DRSC17985	-0.13	1.96	0.49	0.3
31	spri (GeneID 31987)	DRSC17986	0.07	0.68	0.29	-0.34
32	spri (GeneID 31987)	DRSC17988	0.1	0.39	-0.41	0.1
33	spri (GeneID 31987)	DRSC17989	-0.8	-0.56	0.24	0.18
34	spri (GeneID 31987)	DRSC22927	0.89	1.39	-0.3	-1.01
35	CG13810 (GeneID 38278)	DRSC08344	0.93	0.31	-0.36	0.14
36	CG13810 (GeneID 38278)	DRSC22838	1.39	0.75	-1.12	-0.42
37	CG14070 (GeneID 34508)	DRSC02373	0.56	0.26	-1.74	-0.3
38	Br140 (GeneID 35648)	DRSC06755	-1.35	-0.98	-0.55	0.13
39	bcd (GeneID 40830)	DRSC12624	-0.28	-0.05	-0.08	0.7
40	CG9737 (GeneID 43600)	DRSC16550	0.08	-0.23	0.57	0.22
41	Cerk (GeneID 40640)	DRSC12285	0.32	-0.26	0.89	0.34
42	SmydA-1 (GeneID 36581)	DRSC07200	0.29	0.17	-0.01	0.29
43	dati (GeneID 43789)	DRSC17128	-0.91	0.14	0.01	-0.31
44	dati (GeneID 43789)	DRSC17140	-0.87	-0.21	-1.36	0.07
45	dati (GeneID 43789)	DRSC17153	0.38	0.34	0.23	-0.59
46	CG10793 (GeneID 31308)	DRSC17760	0.08	0	0.76	0
47	Erasp (GeneID 246448)	DRSC07111	0.38	-0.82	0.91	0.78
48	CG17159 + CG17162	DRSC20899	1.29	0.77	0.26	-0.52
49	CG17159 + CG17162	DRSC20900	0.26	0.34	-0.12	0.18
50	Sirt1 (GeneID 34708)	DRSC03435	-0.81	-0.6	-0.64	0.56
51	Mdr50 (GeneID 36582)	DRSC07467	0.07	0.14	3.3	2.3
52	Gyc88E (GeneID 41825)	DRSC15547	0.78	-0.58	-0.5	0.12
53	tay (GeneID 32547)	DRSC20142	-0.3	-0.03	0.72	0.17
54	CG30026 (GeneID 246399)	DRSC05276	-0.69	0.18	-0.22	0.78
55	Uck (GeneID 42894)	DRSC13661	-0.41	-1.05	-0.27	0.71
56	Uck (GeneID 42894)	DRSC16028	-0.8	0.37	0.48	-0.43
57	CG1703 (GeneID 32112)	DRSC19764	-0.17	-0.42	0.74	-0.02
